Values quoted from earlier work, collected in US20030158160A1, “Pharmaceutical combination of an anti-androgen and tamoxifen for providing an anti-androgenic effect and aromatase inhibition” (priority 2000, published 2003).
At least one compound was matched to its structure with a doubt left.

Assays:
[1] = tested on: prostate cancer patients; settings: after 24 weeks of daily administration of 150 mg CASODEX alone; cited from earlier work
[2] = tested on: humans; settings: single agent therapy; cited from earlier work

Which results are given for `CC(O)(CS(=O)(=O)c1ccc(F)cc1)C(=O)Nc1ccc(C#N)c(C(F)(F)F)c1` (centres unmarked) [CASODEX™, bicalutamide]?
Increase in mean free testosterone concentration [1]: 57%; Change of basal level of circulating testosterone [2]: approximate doubling
